From article PMC9287327 come the findings set out here.

By UniProt entry, the sequences of proteins in these tests, tags left out. Residues count along the entry.
UniProt Q16620, residues 32-822: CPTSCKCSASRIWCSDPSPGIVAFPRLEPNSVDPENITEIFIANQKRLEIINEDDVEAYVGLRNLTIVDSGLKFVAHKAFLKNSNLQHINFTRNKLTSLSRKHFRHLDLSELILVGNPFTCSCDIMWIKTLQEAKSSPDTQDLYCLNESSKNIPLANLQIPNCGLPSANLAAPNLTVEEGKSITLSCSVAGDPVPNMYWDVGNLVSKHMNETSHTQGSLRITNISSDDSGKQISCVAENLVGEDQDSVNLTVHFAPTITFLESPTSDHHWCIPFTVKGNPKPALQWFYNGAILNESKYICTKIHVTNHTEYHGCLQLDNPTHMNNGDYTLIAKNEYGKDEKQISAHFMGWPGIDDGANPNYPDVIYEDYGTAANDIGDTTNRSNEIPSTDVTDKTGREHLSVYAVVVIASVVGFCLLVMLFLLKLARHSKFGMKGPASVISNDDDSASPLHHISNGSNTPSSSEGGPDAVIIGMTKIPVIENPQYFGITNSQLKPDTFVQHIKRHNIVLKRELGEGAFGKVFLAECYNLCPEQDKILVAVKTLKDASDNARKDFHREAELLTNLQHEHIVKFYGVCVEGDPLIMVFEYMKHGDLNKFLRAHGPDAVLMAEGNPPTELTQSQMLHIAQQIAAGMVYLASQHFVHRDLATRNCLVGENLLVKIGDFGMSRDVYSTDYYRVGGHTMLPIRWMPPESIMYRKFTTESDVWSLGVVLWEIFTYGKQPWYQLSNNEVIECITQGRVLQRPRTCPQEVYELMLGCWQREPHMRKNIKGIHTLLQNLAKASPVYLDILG

No constants are given. Whether binding was seen depends on the method and setting. For part of these data: In cells and extracts the contact can be indirect. Some binding calls cover weakened binding; strength is not graded here. Tags and fused reporters may be left off the sequences shown.

Experiment [1] concerns the target T1, HA-tagged SLITRK2 T312A variant (human) (UniProt Q9H156).
T1 sequence: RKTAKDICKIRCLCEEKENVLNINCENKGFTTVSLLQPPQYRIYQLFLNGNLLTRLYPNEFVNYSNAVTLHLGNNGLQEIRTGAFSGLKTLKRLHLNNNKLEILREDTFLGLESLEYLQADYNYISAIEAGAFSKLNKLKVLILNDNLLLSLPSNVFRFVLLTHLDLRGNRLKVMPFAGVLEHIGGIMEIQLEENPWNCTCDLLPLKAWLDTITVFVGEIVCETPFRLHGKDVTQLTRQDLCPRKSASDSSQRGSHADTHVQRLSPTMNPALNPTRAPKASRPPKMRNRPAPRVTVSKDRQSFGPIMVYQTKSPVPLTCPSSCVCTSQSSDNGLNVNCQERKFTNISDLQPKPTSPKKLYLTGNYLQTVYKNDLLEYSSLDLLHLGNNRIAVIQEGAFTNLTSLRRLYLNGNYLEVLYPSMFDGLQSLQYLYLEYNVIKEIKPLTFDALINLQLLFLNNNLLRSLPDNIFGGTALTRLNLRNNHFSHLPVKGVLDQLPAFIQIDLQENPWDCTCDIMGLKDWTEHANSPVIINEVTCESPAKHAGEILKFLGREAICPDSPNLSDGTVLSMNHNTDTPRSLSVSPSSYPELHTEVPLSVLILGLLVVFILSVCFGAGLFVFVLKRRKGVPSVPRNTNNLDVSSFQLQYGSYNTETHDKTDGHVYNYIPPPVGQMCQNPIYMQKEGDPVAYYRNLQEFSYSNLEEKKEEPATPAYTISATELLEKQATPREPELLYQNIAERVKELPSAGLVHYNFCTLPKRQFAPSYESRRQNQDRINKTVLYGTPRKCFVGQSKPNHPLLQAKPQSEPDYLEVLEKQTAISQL
Nature of the experiment: cell-surface binding assay; HEK293T cells expressing HA-SLITRK2 or its variants incubated with 10 µg/ml purified PTPδ Fc-fusion protein or IgC alone; confocal microscopy; only the binder purified.

In experiment [2] the target is T2, HA-tagged full-length SLITRK2 wild-type (human) (UniProt Q9H156).
T2 sequence: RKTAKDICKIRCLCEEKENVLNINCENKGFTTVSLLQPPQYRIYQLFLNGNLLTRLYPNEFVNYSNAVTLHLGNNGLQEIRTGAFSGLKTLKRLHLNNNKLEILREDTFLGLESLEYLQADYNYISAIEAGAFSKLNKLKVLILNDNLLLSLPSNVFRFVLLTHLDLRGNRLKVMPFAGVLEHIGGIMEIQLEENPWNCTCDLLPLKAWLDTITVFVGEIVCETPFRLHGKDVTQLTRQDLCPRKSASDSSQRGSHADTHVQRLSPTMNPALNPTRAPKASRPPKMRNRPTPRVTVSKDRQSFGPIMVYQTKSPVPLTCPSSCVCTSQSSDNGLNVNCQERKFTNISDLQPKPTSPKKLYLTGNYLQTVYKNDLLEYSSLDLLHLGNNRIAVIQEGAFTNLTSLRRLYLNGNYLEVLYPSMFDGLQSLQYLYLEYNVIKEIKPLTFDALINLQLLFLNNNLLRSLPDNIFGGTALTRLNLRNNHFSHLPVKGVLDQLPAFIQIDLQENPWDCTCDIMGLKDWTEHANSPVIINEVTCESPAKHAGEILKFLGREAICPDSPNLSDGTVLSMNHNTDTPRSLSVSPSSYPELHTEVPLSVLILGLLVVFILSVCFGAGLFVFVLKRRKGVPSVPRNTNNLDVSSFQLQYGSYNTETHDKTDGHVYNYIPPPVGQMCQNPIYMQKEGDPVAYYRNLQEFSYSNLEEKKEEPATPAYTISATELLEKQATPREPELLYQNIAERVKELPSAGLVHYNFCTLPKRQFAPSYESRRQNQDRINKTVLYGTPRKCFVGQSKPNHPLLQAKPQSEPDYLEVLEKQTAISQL
The experiment is described as above.

Experiment [3] concerns the target receptor tyrosine kinase TrkB (UniProt Q16620). Nature of the experiment: co-IP; coimmunoprecipitation assays in HEK293T cells.

B1: recombinant Ig-fusion protein of PTPδ (Fc fusion, UniProt P23468 21-1265)
chain: ETPPRFTRTPVDQTGVSGGVASFICQATGDPRPKIVWNKKGKKVSNQRFEVIEFDDGSGSVLRIQPLRTPRDEAIYECVASNNVGEISVSTRLTVLREDQIPRGFPTIDMGPQLKVVERTRTATMLCAASGNPDPEITWFKDFLPVDTSNNNGRIKQLRSESIGGTPIRGALQIEQSEESDQGKYECVATNSAGTRYSAPANLYVRELREVRRVPPRFSIPPTNHEIMPGGSVNITCVAVGSPMPYVKWMLGAEDLTPEDDMPIGRNVLELNDVRQSANYTCVAMSTLGVIEAIAQITVKALPKPPGTPVVTESTATSITLTWDSGNPEPVSYYIIQHKPKNSEELYKEIDGVATTRYSVAGLSPYSDYEFRVVAVNNIGRGPPSEPVLTQTSEQAPSSAPRDVQARMLSSTTILVQWKEPEEPNGQIQGYRVYYTMDPTQHVNNWMKHNVADSQITTIGNLVPQKTYSVKVLAFTSIGDGPLSSDIQVITQTGVPGQPLNFKAEPESETSILLSWTPPRSDTIANYELVYKDGEHGEEQRITIEPGTSYRLQGLKPNSLYYFRLAARSPQGLGASTAEISARTMQSKPSAPPQDISCTSPSSTSILVSWQPPPVEKQNGIITEYSIKYTAVDGEDDKPHEILGIPSDTTKYLLEQLEKWTEYRITVTAHTDVGPGPESLSVLIRTNEDVPSGPPRKVEVEAVNSTSVKVSWRSPVPNKQHGQIRGYQVHYVRMENGEPKGQPMLKDVMLADAQWEFDDTTEHDMIISGLQPETSYSLTVTAYTTKGDGARSKPKLVSTTGAVPGKPRLVINHTQMNTALIQWHPPVDTFGPLQGYRLKFGRKDMEPLTTLEFSEKEDHFTATDIHKGASYVFRLSARNKVGFGEEMVKEISIPEEVPTGFPQNLHSEGTTSTSVQLSWQPPVLAERNGIITKYTLLYRDINIPLLPMEQLIVPADTTMTLTGLKPDTTYDVKVRAHTSKGPGPYSPSVQFRTLPVDQVFAKNFHVKAVMKTSVLLSWEIPENYNSAMPFKILYDDGKMVEEVDGRATQKLIVNLKPEKSYSFVLTNRGNSAGGLQHRVTAKTAPDVLRTKPAFIGKTNLDGMITVQLPEVPANENIKGYYIIIVPLKKSRGKFIKPWESPDEMELDELLKEISRKRRSIRYGREVELKPYIAAHFDVLPTEFTLGDDKHYGGFTNKQLQSGQEYVFFVLAVMEHAESKMYATSPYSDPVVSMDLDPQPITDEEE
With B1, the binding result in experiment [1] and in experiment [2] was “binds” throughout.

B2: HA-tagged full-length SLITRK2 wild-type (protein, UniProt Q9H156 22-845)
chain: RKTAKDICKIRCLCEEKENVLNINCENKGFTTVSLLQPPQYRIYQLFLNGNLLTRLYPNEFVNYSNAVTLHLGNNGLQEIRTGAFSGLKTLKRLHLNNNKLEILREDTFLGLESLEYLQADYNYISAIEAGAFSKLNKLKVLILNDNLLLSLPSNVFRFVLLTHLDLRGNRLKVMPFAGVLEHIGGIMEIQLEENPWNCTCDLLPLKAWLDTITVFVGEIVCETPFRLHGKDVTQLTRQDLCPRKSASDSSQRGSHADTHVQRLSPTMNPALNPTRAPKASRPPKMRNRPTPRVTVSKDRQSFGPIMVYQTKSPVPLTCPSSCVCTSQSSDNGLNVNCQERKFTNISDLQPKPTSPKKLYLTGNYLQTVYKNDLLEYSSLDLLHLGNNRIAVIQEGAFTNLTSLRRLYLNGNYLEVLYPSMFDGLQSLQYLYLEYNVIKEIKPLTFDALINLQLLFLNNNLLRSLPDNIFGGTALTRLNLRNNHFSHLPVKGVLDQLPAFIQIDLQENPWDCTCDIMGLKDWTEHANSPVIINEVTCESPAKHAGEILKFLGREAICPDSPNLSDGTVLSMNHNTDTPRSLSVSPSSYPELHTEVPLSVLILGLLVVFILSVCFGAGLFVFVLKRRKGVPSVPRNTNNLDVSSFQLQYGSYNTETHDKTDGHVYNYIPPPVGQMCQNPIYMQKEGDPVAYYRNLQEFSYSNLEEKKEEPATPAYTISATELLEKQATPREPELLYQNIAERVKELPSAGLVHYNFCTLPKRQFAPSYESRRQNQDRINKTVLYGTPRKCFVGQSKPNHPLLQAKPQSEPDYLEVLEKQTAISQL
In the case of B2, the binding result in experiment [3] is recorded as “binds”.
